Tested on: rat hindquarters
Experiment: Rat hindquarter preparation, responses to high-K+ Krebs' solution
Protocol: A Rat hindquarter preparation
Responses of rat hindquarters perfused at constant rate were elicited by high -K^+ (80 mM) Krebs' solution. Test compounds (10^-7 M) were perfused for 20 minutes and then compound-free Krebs' perfusion was resumed for 40 min.

CC(C)(C)c1ccc(C(=O)CCCN2CCC(OC(c3ccccc3)c3ccccc3)CC2)cc1 [Compound 1, 4-diphenylmethoxy-1-[3-(4-tert-butylbenzoyl)propyl]-piperidine]
duration of anti-vasoconstrictor effects, compared with terfenadine and cinnarizine (in vitro, rat hindquarter preparation): much longer lasting
TEST A RAT HINDQUARTERS % Inhibition (maximum percentage inhibition, 10^-7 M perfused for 20 minutes, 80 mM K+): 70%
directly acting anti-vasoconstrictor activity (rat hindquarter preparation): potent

— patent publication US4550116A, “Piperidine derivatives” (Fordonal, S.A., priority 1983, dated 1985)
